Measurements from article PMC5834255.
These are yes or no findings as the source states them, for the method shown. In cells and extracts the contact can be indirect. Some entries that bind do so weakly or less than the wild type.

The chains behind the UniProt entries cited, without tags or fusion partners.
UniProt Q04206: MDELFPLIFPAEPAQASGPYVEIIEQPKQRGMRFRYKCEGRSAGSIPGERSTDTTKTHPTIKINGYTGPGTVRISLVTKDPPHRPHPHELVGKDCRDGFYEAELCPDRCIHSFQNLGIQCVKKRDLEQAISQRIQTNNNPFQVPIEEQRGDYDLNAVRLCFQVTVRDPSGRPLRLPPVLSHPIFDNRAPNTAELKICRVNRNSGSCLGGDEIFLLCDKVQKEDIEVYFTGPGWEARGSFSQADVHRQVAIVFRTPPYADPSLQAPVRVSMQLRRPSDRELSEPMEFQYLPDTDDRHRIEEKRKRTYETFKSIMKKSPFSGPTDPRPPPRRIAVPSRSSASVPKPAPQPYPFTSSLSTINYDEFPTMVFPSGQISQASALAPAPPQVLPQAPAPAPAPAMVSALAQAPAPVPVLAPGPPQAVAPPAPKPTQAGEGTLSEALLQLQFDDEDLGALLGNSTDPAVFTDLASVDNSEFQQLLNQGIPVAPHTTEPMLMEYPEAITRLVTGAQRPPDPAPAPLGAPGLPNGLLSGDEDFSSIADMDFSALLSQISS
UniProt P27695: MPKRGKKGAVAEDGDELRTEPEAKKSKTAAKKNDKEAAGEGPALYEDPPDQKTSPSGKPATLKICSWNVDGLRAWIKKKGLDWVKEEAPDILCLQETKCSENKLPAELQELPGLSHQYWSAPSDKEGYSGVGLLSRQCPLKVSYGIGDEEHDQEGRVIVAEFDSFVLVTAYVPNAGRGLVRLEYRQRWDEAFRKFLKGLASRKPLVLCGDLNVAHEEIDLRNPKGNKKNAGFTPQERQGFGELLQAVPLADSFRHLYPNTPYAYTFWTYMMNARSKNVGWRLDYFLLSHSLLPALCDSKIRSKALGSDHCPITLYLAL

Tests used:
[1] = biological target: NFκB subunit p65 (human (endogenous in human prostatic cell lines; line of the co-IP not named)) (UniProt Q04206); experiment: co-IP; Pierce Co-IP kit; cells cross-linked with DTBP (5 mM, 30 min on ice) before lysis; IP with APE1/Ref-1 antibody and, in reverse, with p65 antibody; immunoblot; beads without antibody (Mock) and generic IgG as negative controls
[2] = biological target: Apurinic/apyrimidinic endonuclease 1/redox effector factor 1 (APE1/Ref-1) (human (endogenous in human prostatic cell lines; line of the co-IP not named)) (UniProt P27695); experiment: as above

binding [1] | binding [2] | Substance
binds |  | Apurinic/apyrimidinic endonuclease 1/redox effector factor 1 (APE1/Ref-1) (from UniProt P27695 1-318)
 | binds | NFκB subunit p65 (from UniProt Q04206 1-551)
